Reference: the supplement of paper PMC9744312
Counter-ions that a name gives are not always drawn. The list shows a part of the results. Single values of this set are uncertain.

Each molecule was assayed on Peyronie's disease tunica albuginea primary fibroblasts (assay: cell viability (DRAQ5 nuclear stain) relative to TGF-beta1-only control; higher = more viable cells). Settings: 10 µM; TGF-beta1 10 ng/mL; 72 h.
`Cc1[nH]c(=O)c(C#N)cc1-c1ccncc1` [Milrinone] gave a cell viability of 87.5%. Work on `CN(C)CCC=C1c2ccccc2CCc2ccccc21` [Amitriptyline HCl] yielded a cell viability of 90%. With `Cc1ccnc2c1NC(=O)c1cccnc1N2C1CC1` [Nevirapine] the cell viability was 84.1%. Work on `C#C[C@]1(O)CC[C@H]2[C@@H]3CCc4cc(OC5CCCC5)ccc4[C@H]3CC[C@@]21C` [Quinestrol] yielded a cell viability of 82.5%. With `N=C(N)N` [Guanidine HCl] the cell viability was 68.1%. With `Cc1c(C(N)=O)cc([N+](=O)[O-])cc1[N+](=O)[O-]` [Dinitolmide] the cell viability was 96.1%. With `COc1ccc(C2C(=O)c3ccccc3C2=O)cc1` [Anisindione] the cell viability was 81.2%. For `Cc1cccc(C)c1NC(=O)C1CCCCN1C` (stereo unspecified) [Mepivacaine HCl], the cell viability was 96.9%. Work on `Cc1cccc(C)c1NC(=O)C1CCCCN1C` (stereo unspecified) [Mepivacaine] yielded a cell viability of 90.6%. `CN(C)c1ccc2nc3ccc(=[N+](C)C)cc-3sc2c1` [Methylene Blue] gave a cell viability of 142%. `Cc1ncc([N+](=O)[O-])n1CC(O)CCl` (stereo unspecified) [Ornidazole] was tested, and the cell viability was 85.2%. `N#Cc1ccc2[nH]cc(CCCCN3CCN(c4ccc5oc(C(N)=O)cc5c4)CC3)c2c1` [Vilazodone HCl] gave a cell viability of 90.5%. Work on `CN1C(C(=O)Nc2ccccn2)=C(O)c2sccc2S1(=O)=O` [Tenoxicam] yielded a cell viability of 92.8%. `OC[C@@H](O)[C@H](O)[C@@H](O)CO` [Xylitol] was tested, and the cell viability was 82.9%. `COc1cc2c(cc1OC)C(=O)C(CC1CCN(Cc3ccccc3)CC1)C2` (stereo unspecified) [Donepezil HCl] gave a cell viability of 85.9%. `COc1cc2c(cc1OC)C(=O)C(CC1CCN(Cc3ccccc3)CC1)C2` (stereo unspecified) [Donepezil] gave a cell viability of 88.2%. `CNCC[C@H](Oc1cccc2ccccc12)c1cccs1` [Duloxetine] was tested, and the cell viability was 80.3%. With `CNCC[C@H](Oc1cccc2ccccc12)c1cccs1` [Duloxetine HCl] the cell viability was 85.3%. With `CC1(COc2ccc3c(c2)ncn3-c2ccc3cccc(N4CCC(N)CC4)c3n2)COC1` the cell viability was 55.4%. `CO[C@@]1(NC(=O)Cc2cccs2)C(=O)N2C(C(=O)O)=C(COC(N)=O)CS[C@@H]21` [Cefoxitin sodium] gave a cell viability of 89%. `CN(C(=O)c1ccc(F)cc1C(F)(F)F)C1CCN(c2nnc(-c3ccnn3C)c3ccccc23)CC1` gave a cell viability of 95%. In the case of `COc1ccc([C@H]2CNC(=O)C2)cc1OC1CCCC1` [S- (+)-Rolipram], the cell viability is reported as 107%. With `COCC1=C(C(=O)OC(C)OC(=O)OC(C)C)N2C(=O)[C@@H](NC(=O)/C(=N\OC)c3csc(N)n3)[C@H]2SC1` (stereo partly specified) [Cefpodoxime proxetil] the cell viability was 93.9%. `CC[C@H]1OC(=O)[C@H](C)[C@@H](O[C@H]2C[C@@](C)(OC)[C@@H](O)[C@H](C)O2)[C@H](C)[C@@H](O[C@@H]2O[C@H](C)C[C@H](N(C)C)[C@H]2O)[C@](C)(OC)C[C@@H](C)C(=O)[C@H](C)[C@@H](O)[C@]1(C)O` [Clarithromycin] was tested, and the cell viability was 83.7%. `N[C@@H]1CCCCN(c2c(F)cc3c(=O)c(C(=O)O)cn(C4CC4)c3c2Cl)C1` [Besifloxacin HCl] was tested, and the cell viability was 71.6%. `CCCCC1=NC2(CCCC2)C(=O)N1Cc1ccc(-c2ccccc2-c2nnn[nH]2)cc1` [Irbesartan] was tested, and the cell viability was 91.1%. `NC(=O)Cc1cccc(C(=O)c2ccccc2)c1N` [Nepafenac] gave a cell viability of 94.3%. With `CCCCOC(=O)c1ccc(N)cc1` [Butamben] the cell viability was 92.4%. `CN(C)C(=O)COC(=O)Cc1ccc(OC(=O)c2ccc(NC(=N)N)cc2)cc1` [Camostat Mesilate] gave a cell viability of 96.4%. With `N=C(N)NC(=O)c1nc(Cl)c(N)nc1N` [Amiloride HCl dihydrate] the cell viability was 91.1%. `N=C(N)NC(=O)c1nc(Cl)c(N)nc1N` [Amiloride HCl] gave a cell viability of 82.1%. `Nc1ccccc1NC(=O)c1ccc(CNC(=O)OCc2cccnc2)cc1` [Entinostat (MS-275)] gave a cell viability of 71.1%. With `COc1cc(C(=O)NS(=O)(=O)c2ccccc2C)ccc1Cc1cn(C)c2ccc(NC(=O)OC3CCCC3)cc12` [Zafirlukast] the cell viability was 83.9%. For `Cc1cc(C2CCCCC2)n(O)c(=O)c1` [Ciclopirox ethanolamine], the cell viability was 55.5%. With `Cc1cc(C2CCCCC2)n(O)c(=O)c1` [Ciclopirox] the cell viability was 58.6%. `CC1=C(C(=O)OC(C)C)C(c2cccc([N+](=O)[O-])c2)C(C(=O)OC2CN(C(c3ccccc3)c3ccccc3)C2)=C(N)N1` (stereo unspecified) [Azelnidipine] gave a cell viability of 90.3%. `NCCCC[C@H](NC(=O)[C@@H]1CCCN1C(=O)[C@@H]1CSSC[C@H](NC(=O)CNC(=O)CNC(=O)CN)C(=O)N[C@@H](Cc2ccc(O)cc2)C(=O)N[C@@H](Cc2ccccc2)C(=O)N[C@@H](CCC(N)=O)C(=O)N[C@@H](CC(N)=O)C(=O)N1)C(=O)NCC(N)=O` [Terlipressin Acetate] was tested, and the cell viability was 83.8%. For `NS(=O)(=O)c1cc(C(=O)O)c(NCc2ccco2)cc1Cl` [Furosemide], the cell viability was 94.7%. Molecule `O=C(O)c1cc(=O)c2ccccc2o1` [Chromocarb] has a cell viability of 93%. In the case of `CCOc1cc([C@@H](CS(C)(=O)=O)N2C(=O)c3cccc(NC(C)=O)c3C2=O)ccc1OC`, the cell viability is reported as 72.3%. In the case of `CCOC(=O)[C@H](CCc1ccccc1)N[C@@H](C)C(=O)N1[C@H](C(=O)O)C[C@@H]2CCC[C@@H]21` [Ramipril], the cell viability is reported as 88%. `NC(=O)c1ncn([C@@H]2O[C@H](CO)[C@@H](O)[C@H]2O)n1` [Ribavirin] was tested, and the cell viability was 89.4%. For `CNS(=O)(=O)Cc1ccc2[nH]cc(CCN(C)C)c2c1` [Sumatriptan Succinate], the cell viability was 95.9%. `CN[C@H](CC(C)C)C(=O)N[C@H]1C(=O)N[C@@H](CC(N)=O)C(=O)N[C@H]2C(=O)N[C@H]3C(=O)N[C@H](C(=O)N[C@H](C(=O)O)c4cc(O)cc(O)c4-c4cc3ccc4O)[C@H](O)c3ccc(c(Cl)c3)Oc3cc2cc(c3O[C@@H]2O[C@H](CO)[C@@H](O)[C@H](O)[C@H]2O[C@H]2C[C@](C)(N)[C@H](O)[C@H](C)O2)Oc2ccc(cc2Cl)[C@H]1O` [Vancomycin HCl] was tested, and the cell viability was 85%. Molecule `NS(=O)(=O)c1cc2c(cc1Cl)N=CNS2(=O)=O` [Chlorothiazide] has a cell viability of 89.9%. Molecule `CS(=O)(=O)n1cc2c(n1)CN([C@H]1CO[C@H](c3cc(F)ccc3F)[C@@H](N)C1)C2` [Omarigliptin (MK-3102)] has a cell viability of 92.3%.
